At least one structure is not confirmed: it was looked up by name or label, or the drawing left a doubt.
Tests used:
Format in all cases: in vivo
[1] = tested on: experimental autoimmune encephalomyelitis (EAE); assay: Spinal cord histology, hematoxylin/eosin staining (inflammation score), EAE mice; conditions: Example 5, EAE mouse, day 30; Q-DDS 1 mg/mouse sc once; Fytarex oral daily; mean±SEM
Protocol: (§1) After mouse euthanasia, spinal cord tissue was extracted, hematoxylin/eosin staining and Luxol Fast Blue staining were performed, and MBP-targeted immunohistochemical staining was performed, and histological evaluation was performed through blind evaluation.
On the 30th day which is the last day of the experiment, mouse was sacrificed, and the mouse spinal cord tissue was extracted and paraffin-embedded slides were prepared and then stained with hematoxylin/eosin, and the spinal cord tissue was photographed at 50 and 200 magnifications. Then, histological scores were measured according to the histological evaluation criteria of Table 36 below to evaluate the distribution of inflammatory cells.

[2] = tested on: experimental autoimmune encephalomyelitis (EAE); assay: Spinal cord histology, Luxol Fast Blue staining (demyelination score), EAE mice; conditions: Example 5, EAE mouse, day 30; Q-DDS 1 mg/mouse sc once; Fytarex and Revia oral daily; mean±SEM
Protocol: as §1
On the 30th day which is the last day of the experiment, mouse was sacrificed, and the mouse spinal cord tissue was extracted and paraffin-embedded slides were prepared and then stained with Luxol Fast Blue, and the spinal cord tissue was photographed at 50 and 200 magnifications. In Luxol Fast Blue staining, myelin is stained from blue to green, and nerves are stained purple, and through this, the degree of demyelination was analyzed in the EAE model by confirming the neural structure in the spinal cord. Demyelination was analyzed according to the criteria described in Table 38 below and measured as a score.

[3] = tested on: myelin basic protein (MBP); assay: Immunohistochemistry staining of spinal cord with anti-myelin basic protein antibody, EAE mice; conditions: Example 5, EAE mouse, day 30; Q-DDS 1 mg/mouse sc once; Fytarex and Revia oral daily; mean±SEM
Protocol: as §1
On the 30th day which is the last day of the experiment, mouse was sacrificed, and the mouse spinal cord tissue was extracted and paraffin-embedded slides were prepared and then myelin basic protein (MBP) was stained immunohistochemically, and the spinal cord tissue was photographed at 50 and 200 magnifications. This is to confirm demyelination through immunohistochemical analysis using an antibody against myelin basic protein (MBP), a component of myelin.

`CCCCCCCCc1ccc(CCC(N)(CO)CO)cc1` [Fytarex®, Fingolimod] was tested, and the “inflammation score (hematoxylin/eosin, spinal cord)” value [1] was “decrease compared to the group administered with the carrier-containing DDS”, the “demyelination histological score (Luxol Fast Blue, spinal cord)” value [2] was “decrease in histological score and demyelination” and the “ratio of MBP positive area/total spinal area” value [3] was “conserved compared to the negative control”.
